PubChem BioAssay AID743454, Peter MacCallum Cancer Centre | 2014

- Test: 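Knock-downs lowering viability or raising caspase 3/7 activity in vorinostat-treated resistant cells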 (primary screen)
- Cells: human HCT116-VR colon cancer cells, selected for vorinostat resistance
- Knock-down reagent: siRNA pool against human genes, 40 nM siRNA pool
- Time to read-out: vorinostat for 24 h, read-out about 72 h after transfection
- Treatment: vorinostat at 2.5 µM final
- Read-out: 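Cell viability by CellTiter-Fluor and caspase 3/7 activity by luminescence, each scaled to mock wells per plate, duplicates averaged, then robust z-scored over all plates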
- Direction: viability robust z-score: higher = more viable cells than screen typical; caspase robust z-score: higher = more caspase 3/7 activity than screen typical
- Call rule: 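Hits are knock-downs in viability class RV1/RV2 or caspase class CA1/CA2, excluding ones that killed cells in the no-drug cell-count arm; hits then retested with single siRNAs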
The whole screen tested about 18,000 reagents; this is a random part of them. In the full data, 450 (2.5%) are marked active. 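Single biological run; no consistent viability z cut-off exists, so the class columns, not z-scores, define the calls.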 Unmarked entries are inactive.

gene knocked down | viability hit class | caspase hit class | viability robust z-score | caspase robust z-score
SLC7A10 | no change | no change | 0.7 | 0
IL17RD (interleukin 17 receptor D) | no change | no change | 0.13 | 1.03
SELENOI (selenoprotein I) | no change | no change | 0.38 | -0.31
ACBD5 (acyl-CoA binding domain containing 5) | no change | no change | 1.26 | -0.2
HPGDS (hematopoietic prostaglandin D synthase) | no change | no change | 0.91 | -0.29
ZNF580 (zinc finger protein 580) | no change | no change | -0.7 | 0.11
EIF4A2 (eukaryotic translation initiation factor 4A2) | no change | no change | 0.46 | -0.64
PERP (p53 apoptosis effector related to PMP22) | no change | no change | 0.64 | 0.3
GTF3C1 (general transcription factor IIIC subunit 1) | no change | no change | 0.38 | 0.38
NFKBIZ (NFKB inhibitor zeta) | no change | no change | 0.15 | 0.7
ZNF550 (zinc finger protein 550) | no change | no change | 0.08 | 2.05
ZNF766 (zinc finger protein 766) | no change | no change | -0.66 | -0.85
ANAPC15 (anaphase promoting complex subunit 15) | no change | no change | 0.96 | 2.02
DOCK9 (dedicator of cytokinesis 9) | no change | no change | 0.35 | -0.6
IDE (insulin degrading enzyme) | no change | no change | 0.64 | 2.13
TST (thiosulfate sulfurtransferase) | no change | no change | 0.25 | -0.09
SLURP1 (secreted LY6/PLAUR domain containing 1) | no change | no change | -0.75 | 4.19
ACSM2B (acyl-CoA synthetase medium chain family member 2B) | no change | no change | 0.88 | -1
GFI1B (growth factor independent 1B transcriptional repressor) | no change | no change | -0.04 | 0.74
SDHAF3 (succinate dehydrogenase complex assembly factor 3) | no change | no change | 0.22 | -0.4
ASPRV1 (aspartic peptidase retroviral like 1) | no change | no change | 1.45 | 0.92
LYZ (lysozyme) | no change | no change | 0.01 | -0.62
PRR30 (proline rich 30) | no change | no change | -0.5 | 0.38
